# The whole screen tested about 580,000 compounds, of which about 6,100 (1.1%) were called active. Inconclusive results, whose numbers are uncertain, are shown with a selection of clear calls. Calls come from the whole dose curve; as a rule, active = well fitted inhibition curve with a large enough effect; inconclusive = small, poorly fitted or top-dose-only effect, or another doubt; inactive = no such curve, though single readings can be large or run the other way. Potencies beside an inconclusive call are fits to weak or partial responses and may not hold up.
# Amino acid sequences for entries named in this document (tags omitted). A change or cut given only in a name is not applied to a line headed by its entry.
# UniProt P18054: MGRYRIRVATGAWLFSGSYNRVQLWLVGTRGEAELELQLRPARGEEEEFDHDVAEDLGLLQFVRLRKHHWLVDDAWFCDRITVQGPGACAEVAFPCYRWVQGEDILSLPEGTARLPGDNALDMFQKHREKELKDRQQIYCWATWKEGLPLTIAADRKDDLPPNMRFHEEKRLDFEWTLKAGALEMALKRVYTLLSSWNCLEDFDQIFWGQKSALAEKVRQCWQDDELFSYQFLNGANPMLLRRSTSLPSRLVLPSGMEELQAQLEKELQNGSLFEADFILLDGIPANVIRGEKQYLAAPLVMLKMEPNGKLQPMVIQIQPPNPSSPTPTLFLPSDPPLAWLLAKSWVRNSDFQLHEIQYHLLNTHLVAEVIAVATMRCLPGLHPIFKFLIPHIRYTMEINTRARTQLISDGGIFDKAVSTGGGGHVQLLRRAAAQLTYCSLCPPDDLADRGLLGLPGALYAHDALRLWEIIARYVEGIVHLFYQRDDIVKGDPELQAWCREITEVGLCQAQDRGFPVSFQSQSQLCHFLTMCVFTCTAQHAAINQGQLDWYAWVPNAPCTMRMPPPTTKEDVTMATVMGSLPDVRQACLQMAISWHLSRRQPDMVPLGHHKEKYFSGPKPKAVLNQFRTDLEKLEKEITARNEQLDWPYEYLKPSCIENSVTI
# Molecular target: Polyunsaturated fatty acid lipoxygenase ALOX12 (Homo sapiens) (UniProt P18054)
# Assay: Primary qHTS assay for inhibitors of human arachidonate 12S-lipoxygenase (ALOX12): Round 2
# Details: purified 12hLO, xylenol orange hydroperoxide absorbance; activity change, negative = inhibition: at 108 µM (top of the series) unless noted
# Outline: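 Purified human 12hLO (150 nM final) in 25 mM Hepes, 0.01% Triton X-100, pH 7.0 was preincubated 15 min at room temperature with compound. Then 40 uM arachidonic acid was added, 30 min. Hydroperoxide was read by Fe-XO absorbance ratio 573/405 nm.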
# % is set by controls: 0 for no effect and ±100 for the full control effect; potency is the fitted concentration of half-maximal effect.
SMILES,Potency,"activity change, negative = inhibition"
COc1cccc(CC(=O)N2CCCn3nc(C)c(-c4ccccc4Oc4ccccc4)c32)c1,"inconclusive: 79.4 µM [inhibitor, partial curve, poor fit]",–
O=S(=O)(c1ccc(Cl)cc1)n1cnc2ccccc21,"inconclusive: 35.5 µM [inhibitor, partial curve, poor fit]",–
CCn1nnnc1SCc1nnc(-c2c(-c3ccccc3)noc2C)o1,inactive,–
c1ccc(CCNc2cnccn2)cc1,inactive,–
COC(=O)c1ccc(-c2ccc(C=O)o2)cc1,"inconclusive: 50.1 µM [inhibitor, partial curve]",–
CC(NC(=O)/C(=C\c1cccc([N+](=O)[O-])c1)NC(=O)c1ccco1)C(=O)O (centres undefined),"inconclusive: 0.1 µM [inhibitor, full curve, poor fit]",–
O=C(c1cnccn1)N1CCC[C@@]2(CCN(c3ccccc3)C2)C1,"inconclusive: 31.6 µM [inhibitor, single point]",–
COc1ccc(-c2csc(NC(=O)CSc3nc4ccccc4o3)n2)cc1,"inconclusive: 63.1 µM [inhibitor, partial curve, poor fit]",–
Fc1ccccc1CSc1nnc(-c2ccccc2F)n1C1CC1,"inconclusive: 79.4 µM [inhibitor, single point]",–
Cc1cc(C(=O)NC(=S)Nc2cccc(NC(=O)C(C)C)c2)ccc1[N+](=O)[O-],"inconclusive: 22.4 µM [inhibitor, single point]",–
O=S(=O)(c1ccc(Br)cc1)N1CCN(c2ccc3nnc(-c4ccccc4)n3n2)CC1,"inconclusive: 2.51 µM [inhibitor, full curve, poor fit]",–
CCOc1ccc(Cn2c(CNS(=O)(=O)c3ccc(Cl)s3)nc3cccnc32)cc1,inactive,–
O=c1cc(CCl)nc(Cc2c(Cl)cccc2Cl)[nH]1,"inconclusive: 44.7 µM [inhibitor, partial curve, poor fit]",–
CCOC(=O)N1CCN(S(=O)(=O)c2cc(OCC)c(C)cc2OCC)CC1,inactive,–
CC(C)c1ccc(CN2CCC3(CC2)COCCN3C(=O)OCc2ccccc2)cc1,"inconclusive: 63.1 µM [inhibitor, partial curve, poor fit]",–
Cc1ccc2nc(-c3ccc(Cl)cc3)c(CC3CCCCC3)n2c1,"inconclusive: 39.8 µM [inhibitor, partial curve]",–
CCOC(=O)c1sc(=S)n(-c2cccc(OC)c2)c1N,"inconclusive: 31.6 µM [inhibitor, full curve, poor fit]",–
CC(C)c1ccc(CN2CCCC3(CCN(C(=O)c4ccsc4)C3)C2)cc1 (centres undefined),inactive,–
Cc1cc(C)c(OCCN2CCCC2)c(Cl)c1,inactive,–
CN1CC(=O)N(CC(=O)Nc2cccc(S(=O)(=O)N3CCOCC3)c2)C1=O,–,inconclusive: -35.5% [inhibitor]
CNC(=O)c1c(NC(=O)C(C)C)sc2c1CCC2,inactive,–
O=C(CSc1nnc(-c2cccnc2)n1C1CC1)c1cc2cc(Cl)ccc2o1,active: 25.1 µM,–
C[S+](=O)([O-])c1ccc(-c2nccc3c(=O)cc(-c4ccncc4)oc23)cc1,"inconclusive: 63.1 µM [inhibitor, partial curve, poor fit]",–

# As entered above:
# CCOC(=O)c1sc(=S)n(-c2cccc(OC)c2)c1N – Potency: inconclusive: 31.6 µM [inhibitor, full curve, poor fit]
# CC(NC(=O)/C(=C\c1cccc([N+](=O)[O-])c1)NC(=O)c1ccco1)C(=O)O (centres undefined) – Potency: inconclusive: 0.1 µM [inhibitor, full curve, poor fit]
# Cc1cc(C)c(OCCN2CCCC2)c(Cl)c1 – Potency: inactive
# O=c1cc(CCl)nc(Cc2c(Cl)cccc2Cl)[nH]1 – Potency: inconclusive: 44.7 µM [inhibitor, partial curve, poor fit]
# CCOc1ccc(Cn2c(CNS(=O)(=O)c3ccc(Cl)s3)nc3cccnc32)cc1 – Potency: inactive
# CNC(=O)c1c(NC(=O)C(C)C)sc2c1CCC2 – Potency: inactive

# (next part)

SMILES,Potency,"activity change, negative = inhibition"
Cc1ccsc1C(=O)OCC(=O)Nc1cccc(S(=O)(=O)N2CCCCC2)c1,"inconclusive: 1.58 µM [inhibitor, full curve, poor fit]",–
Nc1ccc(N2CCN(c3ncc(C(F)(F)F)cc3Cl)CC2)c(C(F)(F)F)c1,"inconclusive: 44.7 µM [inhibitor, full curve, poor fit]",–
CCCCCCCCN1C(=O)[C@H](CC(=O)NCCCN2CCCC2=O)C[C@@]2(C(=O)OC)CCCCC=C12,inactive,–
O[C@@H]1CO[C@H]2[C@@H]1OC[C@@H]2n1nnnc1SC1CCCC1,active: 63.1 µM,–
Cc1nc(CNCc2cccc(NC(=O)c3ccc(F)cc3)c2)cs1,"inconclusive: 17.8 µM [inhibitor, full curve, poor fit]",–
COc1ccc(C(=O)CCC(=O)NCc2cc(OC)cc(OC)c2)cc1,inactive,–
CCc1c(C)sc(NC(=O)Cc2ccc(Cl)cc2Cl)c1C#N,"inconclusive: 79.4 µM [inhibitor, single point]",–
Cc1ccc2nc(-c3ccc(SCC(=O)Nc4nnc(C)s4)nc3)[nH]c2c1,"inconclusive: 50.1 µM [inhibitor, partial curve, poor fit]",–
COCCNC(=O)C[C@@H]1C[C@@H](C(C)C)[C@H](CNC(=O)C2CC2)C=C1C,inactive,–
COc1ccc(CCN(C)C(=S)Nc2ccc(SC(F)F)cc2)cc1OC,inactive,–
Cc1cccnc1NC(=O)c1cnc2ccccc2n1,inactive,–
COC[C@@H]1CN(C(=O)c2cc[nH]c(=O)c2)C[C@H]1c1ccncc1,"inconclusive: 20 µM [inhibitor, full curve]",–
Fc1cccc(Cc2c(-c3cccc(Cl)c3)nc3ccc(Br)cn23)c1,"inconclusive: 50.1 µM [inhibitor, partial curve, poor fit]",–
CC(Oc1ccc(Cl)cc1Cl)C(=O)Nc1ccc(N2CCN(C)CC2)cc1 (centres undefined),"inconclusive: 79.4 µM [inhibitor, single point]",–
O=C(O)c1cc(-c2ccco2)nn1-c1ccc(Cl)cc1,"inconclusive: 79.4 µM [inhibitor, single point]",–
O=C(O)C(=O)/C=C/c1cccs1,"inconclusive: 35.5 µM [inhibitor, partial curve]",–
CCCOc1ccc(C[N+](C)(C)C)cc1C[N+](C)(C)C,active: 63.1 µM,–
Cc1ccc(N2C(=O)C(Cl)=C(N3CCOCC3)C2=O)c(C)c1,"inconclusive: 35.5 µM [inhibitor, partial curve, poor fit]",–
Cc1cc(NC(=O)CSc2ccc3ccccc3c2)no1,"inconclusive: 31.6 µM [inhibitor, partial curve, poor fit]",–
O=C(O)CC1=C(O)C(=O)N(c2ccccc2)C1c1ccc(Br)cc1 (centres undefined),"inconclusive: 50.1 µM [inhibitor, partial curve, poor fit]",–
O=[N+]([O-])c1cccc(N=Nc2ccc(O)cc2O)c1,active: 20 µM,–
COc1ccc2nc3n(c(=O)c2c1)-c1ncccc1C(=O)NC3C (centres undefined),"inconclusive: 28.2 µM [inhibitor, single point]",–
Cc1cc(NC(=O)CSc2nnc(Cn3c(=O)sc4ccccc43)n2-c2ccccc2C)no1,inactive,–

SMILES,Potency,"activity change, negative = inhibition"
Cc1nc(SCC(=O)O)c(C#N)c(C)c1CC(=O)c1ccccc1,inactive,–
N/C(=N\OC(=O)c1csnn1)c1ccc(C(F)(F)F)cc1,"inconclusive: 112 µM [inhibitor, single point]",–
COc1ccc(C(O)c2nc(-c3cccs3)cs2)cc1 (centres undefined),"inconclusive: 89.1 µM [inhibitor, partial curve, poor fit]",–
CCOC(=O)c1c(C)oc2nc(C)nc(NCc3ccc(OC)cc3OC)c12,"inconclusive: 89.1 µM [inhibitor, single point]",–
COc1ccc(C(=O)NC(=O)CSc2nc3nc(C)cc(C)n3n2)cc1,"inconclusive: 28.2 µM [inhibitor, partial curve]",–
CSc1nnc(C)c(=O)n1COC(=O)/C=C/c1ccc2c(c1)OCO2,inactive,–
CCCNC(=O)[C@@H]1CCCN1[C@@H](C(=O)NC)c1ccccc1,"inconclusive: 12.6 µM [inhibitor, full curve, poor fit]",–
CCn1c(=O)n(CCC(=O)N(C)CC(=O)Nc2ccccc2Br)c2ccccc21,inactive,–
Cc1cc(C)c(S(=O)(=O)N2CCCCC2)cc1N(C)S(=O)(=O)c1ccc(Cl)cc1,inactive,–
COc1c(F)c(F)c(C(=O)Nc2ccc(-c3nc4ccccc4[nH]3)cc2)c(F)c1F,inactive,–
N#C/C(=C\c1cn(Cc2ccc(F)cc2)c2ccccc12)C(=O)NCc1ccco1,"inconclusive: 11.2 µM [inhibitor, full curve, poor fit]",–
CCOC(=O)CSc1nsc(SCC(=O)OCC)c1C#N,"inconclusive: 100 µM [inhibitor, single point]",–
Cc1ccc(N(CC(O)CN2CCOCC2)S(=O)(=O)c2ccc([N+](=O)[O-])cc2)cc1 (centres undefined),"inconclusive: 112 µM [inhibitor, partial curve, poor fit]",–
Cc1onc(-c2c(F)cccc2Cl)c1C(=O)N1CCSCC1,"inconclusive: 112 µM [inhibitor, single point]",–
O=C(CSc1n[nH]c(-c2ccccc2)n1)Nc1ccc(F)cc1F,"inconclusive: 100 µM [inhibitor, single point]",–
Oc1ccc(-c2nc3ncccn3c2Nc2ccc3c(c2)OCO3)cc1,"inconclusive: 79.4 µM [inhibitor, single point]",–
COC(=O)c1cc(-c2cccs2)nc2ccccc12,"inconclusive: 28.2 µM [inhibitor, partial curve]",–
CC(CN1CCCC1)CN(C)c1nc(CCN)nc2ccccc12 (centres undefined),inactive,–
CC(C)=CCO[C@H]1CCOC[C@H]1NC(=O)CCc1ccc(=O)[nH]n1,"inconclusive: 3.16 µM [inhibitor, full curve, poor fit]",–
CSc1ccccc1Sc1cc(C(=O)O)c2ccccc2n1,"inconclusive: 56.2 µM [inhibitor, partial curve, poor fit]",–
Cc1ccc(CNS(=O)(=O)c2ccc3[nH]c4c(c3c2)CCCC4)cc1,"inconclusive: 79.4 µM [inhibitor, partial curve, poor fit]",–
Cc1ccc2oc(-c3cccc(NC(=O)c4cc(-n5cnnc5)ccc4Cl)c3)nc2c1,inactive,–
Cc1ccc(-c2nc(CS(=O)(=O)CC3CCCO3)co2)cc1 (centres undefined),"inconclusive: 35.5 µM [inhibitor, partial curve, poor fit]",–

# From PubChem BioAssay AID1671190 (National Center for Advancing Translational Sciences (NCATS), 2021)
